Experimental data from paper PMC10943123.
No constants are given. Whether binding was seen depends on the method and setting. Binding seen in cells or lysates may run through a third protein. Some entries that bind do so weakly or less than the wild type.

By UniProt entry, the sequences of proteins in these tests, tags left out.
UniProt O75533: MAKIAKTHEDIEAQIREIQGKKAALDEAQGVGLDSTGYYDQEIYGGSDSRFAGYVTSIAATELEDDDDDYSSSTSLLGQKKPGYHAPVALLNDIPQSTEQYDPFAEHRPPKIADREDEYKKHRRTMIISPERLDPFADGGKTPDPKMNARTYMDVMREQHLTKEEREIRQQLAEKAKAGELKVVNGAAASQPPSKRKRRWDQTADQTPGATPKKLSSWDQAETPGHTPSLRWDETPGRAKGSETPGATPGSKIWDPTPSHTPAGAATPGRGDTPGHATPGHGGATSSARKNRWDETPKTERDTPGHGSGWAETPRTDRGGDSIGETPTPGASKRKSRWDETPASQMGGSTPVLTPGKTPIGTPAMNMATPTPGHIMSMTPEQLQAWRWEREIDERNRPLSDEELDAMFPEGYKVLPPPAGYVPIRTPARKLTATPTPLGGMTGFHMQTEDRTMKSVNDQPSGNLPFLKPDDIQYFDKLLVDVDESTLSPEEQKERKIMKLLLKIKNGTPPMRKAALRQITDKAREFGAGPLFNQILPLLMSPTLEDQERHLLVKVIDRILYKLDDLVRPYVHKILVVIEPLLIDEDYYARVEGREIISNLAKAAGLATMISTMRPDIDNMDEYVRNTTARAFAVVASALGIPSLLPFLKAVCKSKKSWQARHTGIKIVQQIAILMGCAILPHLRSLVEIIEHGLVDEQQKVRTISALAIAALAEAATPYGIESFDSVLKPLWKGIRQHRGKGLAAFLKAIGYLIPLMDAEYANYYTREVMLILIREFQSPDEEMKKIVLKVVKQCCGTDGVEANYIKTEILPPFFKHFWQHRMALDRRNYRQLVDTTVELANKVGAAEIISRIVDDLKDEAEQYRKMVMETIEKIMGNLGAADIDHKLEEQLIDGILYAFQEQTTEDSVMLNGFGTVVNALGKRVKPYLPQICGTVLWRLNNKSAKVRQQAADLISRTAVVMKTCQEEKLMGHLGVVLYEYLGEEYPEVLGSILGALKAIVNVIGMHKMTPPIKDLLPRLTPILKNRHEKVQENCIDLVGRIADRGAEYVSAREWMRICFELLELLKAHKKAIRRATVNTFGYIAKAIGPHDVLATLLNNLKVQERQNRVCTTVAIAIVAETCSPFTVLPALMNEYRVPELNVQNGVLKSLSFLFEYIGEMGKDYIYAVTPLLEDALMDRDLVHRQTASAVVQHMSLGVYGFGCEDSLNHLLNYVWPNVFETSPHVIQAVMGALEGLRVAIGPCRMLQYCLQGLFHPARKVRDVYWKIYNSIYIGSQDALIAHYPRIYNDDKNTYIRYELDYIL
UniProt Q13435: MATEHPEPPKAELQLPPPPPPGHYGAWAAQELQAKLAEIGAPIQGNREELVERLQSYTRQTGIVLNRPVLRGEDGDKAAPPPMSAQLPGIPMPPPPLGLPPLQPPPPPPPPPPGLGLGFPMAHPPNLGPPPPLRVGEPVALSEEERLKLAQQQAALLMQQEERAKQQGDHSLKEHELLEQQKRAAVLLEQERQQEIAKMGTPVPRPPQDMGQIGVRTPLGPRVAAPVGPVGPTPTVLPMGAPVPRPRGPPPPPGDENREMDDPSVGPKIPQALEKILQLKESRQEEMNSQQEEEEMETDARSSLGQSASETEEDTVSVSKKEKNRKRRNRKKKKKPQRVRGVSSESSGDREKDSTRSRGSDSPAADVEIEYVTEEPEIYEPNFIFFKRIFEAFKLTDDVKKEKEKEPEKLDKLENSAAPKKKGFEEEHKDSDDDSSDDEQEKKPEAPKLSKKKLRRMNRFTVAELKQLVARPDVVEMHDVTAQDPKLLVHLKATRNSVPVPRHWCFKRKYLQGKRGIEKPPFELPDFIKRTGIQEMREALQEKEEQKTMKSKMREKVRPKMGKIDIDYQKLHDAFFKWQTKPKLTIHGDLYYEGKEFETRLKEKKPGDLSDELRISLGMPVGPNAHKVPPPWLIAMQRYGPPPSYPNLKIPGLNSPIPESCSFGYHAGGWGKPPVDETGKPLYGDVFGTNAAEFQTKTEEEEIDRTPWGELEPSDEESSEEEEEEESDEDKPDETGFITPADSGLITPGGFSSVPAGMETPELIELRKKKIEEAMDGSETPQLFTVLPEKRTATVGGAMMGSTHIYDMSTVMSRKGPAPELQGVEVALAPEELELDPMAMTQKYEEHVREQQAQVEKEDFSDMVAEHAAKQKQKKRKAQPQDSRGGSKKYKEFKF
UniProt P55081: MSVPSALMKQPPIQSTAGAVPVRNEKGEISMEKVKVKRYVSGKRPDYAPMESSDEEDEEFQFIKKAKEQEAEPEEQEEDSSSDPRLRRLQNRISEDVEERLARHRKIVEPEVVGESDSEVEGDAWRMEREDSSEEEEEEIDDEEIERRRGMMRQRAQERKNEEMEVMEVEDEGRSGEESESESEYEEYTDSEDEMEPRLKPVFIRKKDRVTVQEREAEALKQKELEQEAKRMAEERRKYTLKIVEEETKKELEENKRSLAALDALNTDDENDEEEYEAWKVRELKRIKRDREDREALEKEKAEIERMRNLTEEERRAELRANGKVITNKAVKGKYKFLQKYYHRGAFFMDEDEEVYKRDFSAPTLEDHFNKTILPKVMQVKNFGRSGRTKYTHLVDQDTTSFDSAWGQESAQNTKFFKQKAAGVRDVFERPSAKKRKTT
UniProt Q13123: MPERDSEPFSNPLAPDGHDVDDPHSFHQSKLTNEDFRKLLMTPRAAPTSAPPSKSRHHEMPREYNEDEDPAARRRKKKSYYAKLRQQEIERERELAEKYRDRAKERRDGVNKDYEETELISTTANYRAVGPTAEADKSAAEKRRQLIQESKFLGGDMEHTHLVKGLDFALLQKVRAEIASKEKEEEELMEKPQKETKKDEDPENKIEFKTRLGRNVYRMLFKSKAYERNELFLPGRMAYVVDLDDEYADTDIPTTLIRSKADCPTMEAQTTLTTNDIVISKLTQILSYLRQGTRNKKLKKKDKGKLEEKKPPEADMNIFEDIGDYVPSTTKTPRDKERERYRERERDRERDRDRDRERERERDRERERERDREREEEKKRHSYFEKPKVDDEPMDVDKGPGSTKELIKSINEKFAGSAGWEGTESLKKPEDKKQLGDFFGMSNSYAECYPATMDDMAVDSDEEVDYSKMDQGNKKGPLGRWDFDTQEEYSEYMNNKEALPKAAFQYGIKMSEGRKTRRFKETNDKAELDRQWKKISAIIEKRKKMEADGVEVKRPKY

Tests used:
[1] = molecular target: SF3B1 (human (endogenous in HeLa)) (UniProt O75533); assay: cross-linking; affinity-purified B complex dimers crosslinked with 350 μM BS3 for 35 min at 18 °C, glycerol gradient, trypsin digest, mass spectrometry, pLink 2.3.9 (CXMS)
[2] = molecular target: SF3B2 (human (endogenous in HeLa)) (UniProt Q13435); assay: as above

binding [1]	binding [2]	Substance
binds	–	MFAP1 (from UniProt P55081 1-439)
binds	binds	RED (from UniProt Q13123 1-557)
